Results taken from the supplement of paper PMC4604168 (melanoma cell lines).
This is one part of the list. Many values rest on one well or one pass, so single values are uncertain.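 Imaging used 1,536-well plates; nuclei positive for cleaved PARP by antibody were divided by total DNA-stained nuclei to yield the apoptosis fraction. Doses for screening kept most cells viable, and cell lines differ markedly in resting and induced cleaved-PARP levels.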

What was measured:
Assay in all cases: cleaved PARP positive nuclei fraction relative to DMSO control; melanoma cells; higher = more apoptosis
Settings in all cases: library dose: low library concentration; 72 h
501Mel = system: 501Mel
A101D = system: A101D
A2058 = system: A2058
A375 = system: A375
C32 = system: C32
CBRC008 = system: CBRC008 (line from a melanoma biopsy)
CBRC013 = system: CBRC013 (line from a melanoma biopsy)
CBRC014 = system: CBRC014 (line from a melanoma biopsy)
CBRC016 = system: CBRC016 (line from a melanoma biopsy)
CBRC017 = system: CBRC017 (line from a melanoma biopsy)

| Compound | cleaved PARP positive nuclei fraction (501Mel) [%] | cleaved PARP positive nuclei fraction (A101D) [%] | cleaved PARP positive nuclei fraction (A2058) [%] | cleaved PARP positive nuclei fraction (A375) [%] | cleaved PARP positive nuclei fraction (C32) [%] | cleaved PARP positive nuclei fraction (CBRC008) [%] | cleaved PARP positive nuclei fraction (CBRC013) [%] | cleaved PARP positive nuclei fraction (CBRC014) [%] | cleaved PARP positive nuclei fraction (CBRC016) [%] | cleaved PARP positive nuclei fraction (CBRC017) [%] |
| --- | --- | --- | --- | --- | --- | --- | --- | --- | --- | --- |
| N.N.[Cl][Pt][Cl] [cisplatin] + COc1cc(Nc2ncc(F)c(Nc3ccc4c(n3)NC(=O)C(C)(C)O4)n2)cc(OC)c1OC [Tamatinib] (first compound 1.6 µM, partner dose 0.4 µM) | 103 | 77.1 | 147 | 172 | 59.8 | 283 | 87.2 | 123 | 113 | 107 |
| N.N.[Cl][Pt][Cl] [cisplatin] + OCCn1cc(-c2cnc3nnn(Cc4ccc5ncccc5c4)c3n2)cn1 [PF04217903] (first compound 1.6 µM, partner dose 1 µM) | 234 | 182 | 104 | 114 | 77.3 | 219 | 76.7 | 103 | 211 | 106 |
| N.N.[Cl][Pt][Cl] [cisplatin] + C[C@@H]1CCN(C(=O)CC#N)C[C@@H]1N(C)c1ncnc2[nH]ccc12 [CP690550] (first compound 1.6 µM, partner dose 1 µM) | 123 | 185 | 87.3 | 81 | 116 | 127 | 50.8 | 92.9 | 174 | 80.8 |
| Cn1cc(C2=C(c3cn(C4CCN(Cc5ccccn5)CC4)c4ccccc34)C(=O)NC2=O)c2ccccc21 [Enzastaurin] + CO[C@@H]1[C@H](N(C)C(=O)c2ccccc2)C[C@H]2O[C@]1(C)n1c3ccccc3c3c4c(c5c6ccccc6n2c5c31)C(=O)NC4 [Midostaurin] (first compound 0.8 µM, partner dose 0.08 µM) | 63.6 | 226 | 116 | 342 | 363 | 140 | 153 | 100 | 172 | 89.5 |
| Cn1cc(C2=C(c3cn(C4CCN(Cc5ccccn5)CC4)c4ccccc34)C(=O)NC2=O)c2ccccc21 [Enzastaurin] + CN(NC(=O)CC(=O)NN(C)C(=S)c1ccccc1)C(=S)c1ccccc1 [STA4783] (first compound 0.8 µM, partner dose 0.006 µM) | 139 | 93 | 192 | 7130 | 119 | 3260 | 64.9 | 1150 | 90.1 | 267 |
| C[C@]12O[C@H](C[C@]1(O)CO)n1c3ccccc3c3c4c(c5c6ccccc6n2c5c31)CNC4=O [Lestaurtinib] + NCC(=O)Nc1ccc(-n2nc(C(F)(F)F)cc2-c2ccc3c(ccc4ccccc43)c2)cc1 [OSU03012] (first compound 0.004 µM, partner dose 1 µM) | 206 | 74.4 | 85 | 3820 | 56.8 | 95.6 | 85.1 | 190 | 129 | 109 |
| C[C@]12O[C@H](C[C@]1(O)CO)n1c3ccccc3c3c4c(c5c6ccccc6n2c5c31)CNC4=O [Lestaurtinib] + C=CCn1c(=O)c2cnc(Nc3ccc(N4CCN(C)CC4)cc3)nc2n1-c1cccc(C(C)(C)O)n1 [MK1775] (first compound 0.004 µM, partner dose 0.02 µM) | 85.9 | 96.5 | 100 | 135 | 84.2 | 81.2 | 116 | 95.4 | 35.4 | 80.2 |
| C[C@]12O[C@H](C[C@]1(O)CO)n1c3ccccc3c3c4c(c5c6ccccc6n2c5c31)CNC4=O [Lestaurtinib] + CC(C)(C)c1cnc(CSc2cnc(NC(=O)C3CCNCC3)s2)o1 [SNS-032] (first compound 0.004 µM, partner dose 0.01 µM) | 92.1 | 87.7 | 75.7 | 46.9 | 131 | 127 | 143 | 90.6 | 48 | 70.9 |
| N.N.[Cl][Pt][Cl] [cisplatin] + NC(=O)Nc1cc(-c2cccc(F)c2)sc1C(=O)N[C@H]1CCCNC1 [AZD7762] (first compound 1.6 µM, partner dose 0.02 µM) | 87.3 | 97.2 | 65 | 266 | 89.8 | 121 | 97.4 | 96.5 | 257 | 99 |
| C[As](C)SC[C@H](NC(=O)CC[C@H](N)C(=O)O)C(=O)NCC(=O)O [Darinaparsin] + COc1cc2c(Oc3ccc4[nH]c(C)cc4c3F)ncnc2cc1OCCCN1CCCC1 [cediranib] (first compound 0.4 µM, partner dose 0.4 µM) | 96.9 | 65.8 | 60.9 | 42.9 | 111 | 56.1 | 140 | 70 | 26.8 | 72.9 |
| C[C@]12O[C@H](C[C@]1(O)CO)n1c3ccccc3c3c4c(c5c6ccccc6n2c5c31)CNC4=O [Lestaurtinib] + CN(NC(=O)CC(=O)NN(C)C(=S)c1ccccc1)C(=S)c1ccccc1 [STA4783] (first compound 0.004 µM, partner dose 0.006 µM) | 66.4 | 73.1 | 115 | 64.4 | 120 | 881 | 95.8 | 185 | 140 | 116 |

An excerpt from above, showing only cleaved PARP positive nuclei fraction (C32) [%], cleaved PARP positive nuclei fraction (A2058) [%] and cleaved PARP positive nuclei fraction (CBRC017) [%].

| Compound | cleaved PARP positive nuclei fraction (C32) [%] | cleaved PARP positive nuclei fraction (A2058) [%] | cleaved PARP positive nuclei fraction (CBRC017) [%] |
| --- | --- | --- | --- |
| C[C@]12O[C@H](C[C@]1(O)CO)n1c3ccccc3c3c4c(c5c6ccccc6n2c5c31)CNC4=O [Lestaurtinib] + C=CCn1c(=O)c2cnc(Nc3ccc(N4CCN(C)CC4)cc3)nc2n1-c1cccc(C(C)(C)O)n1 [MK1775] (first compound 0.004 µM, partner dose 0.02 µM) | 84.2 | 100 | 80.2 |
| C[C@]12O[C@H](C[C@]1(O)CO)n1c3ccccc3c3c4c(c5c6ccccc6n2c5c31)CNC4=O [Lestaurtinib] + CC(C)(C)c1cnc(CSc2cnc(NC(=O)C3CCNCC3)s2)o1 [SNS-032] (first compound 0.004 µM, partner dose 0.01 µM) | 131 | 75.7 | 70.9 |
